Consider two compounds from patent publication US10471063B2, “Drug combination of PDE3/PDE4 inhibitor and muscarinic receptor antagonist” (VERONA PHARMA PLC, priority 2013, dated 2019).

The data set has as its system human isolated bronchial rings. Put plainly: Relaxation of human isolated bronchial rings pre-contracted with acetylcholine (EC70); synergy analysis (Bliss Independence, Berenbaum). In kind it is cell-based. The settings on record: 4 parameter logistic fit; mean±SD, n=5. From the text:
In the laboratory, airways were dissected from connective and alveolar tissues. Then, segmental bronchi were isolated and stored overnight in KH buffer solution at refrigeration temperature. […] Bronchial rings were mounted on hooks in the organ baths where one hook was attached with threaded to a stationary rod and the other hook tied with thread to an isometric force displacement transducer. […] E/Emax was expressed as percentage of Emax elicited by the contractile agents; […] The analysis of the potential synergism between RPL554 plus muscarinic receptor antagonist was measured by applying the Berenbaum method, the Bliss Independence (BI) criterion and the Loewe Additivity (LA) model through curved isoboles (Berenbaum, 1977; Greco et al., 1995; Grabovsky and Tallarida, 2004; Tallarida, 2006; Goldoni and Johansson, 2007; Tallarida and Raffa, 2010). […] The additive response (Eab) for each dose combination with respect to B was then calculated by insertion of B into EB=f(B). The difference between the observed relaxation response to the combination doses and the additive response was calculated and analysed using a one sample t-test and for multiple comparisons, the probability was adjusted for multiple comparisons using a Bonferroni correction. For illustrative purposes, the 1:1 dose combinations were analysed for synergy. […]

For the compound `COc1cc2c(cc1OC)-c1cc(=Nc3c(C)cc(C)cc3C)n(CCNC(N)=O)c(=O)n1CC2` [RPL554, 9,10-Dimethoxy-2-(2,4,6-trimethylphenylimino)-3-(N-carbamoyl-2-aminoethyl)-3,4,6,7-tetrahydro-2H-pyrimido[6,1-a]isoquinolin-4-one], the “slope (nH)” value was 2.271±0.713. Turning to `CN1[C@@H]2CC[C@H]1C[C@@H](OC(=O)C(CO)c1ccccc1)C2` (some centres unmarked) [atropine, reference compound], the “slope (nH)” value came to 0.912±0.488.
